For one molecule, binding results are on record in PMC12765055.

The target of the test is ryanodine receptor 2 (RyR2) in porcine cardiac SR membranes (pig (endogenous in porcine left ventricle SR)). Nature of the test: FRET or BRET; fluorescence-lifetime FRET from D-FKBP preloaded on H2O2-treated (100 μM) cardiac SR (2 mg/ml) to 1.5 μM A-DPc10; 30 nM free Ca2+, 20 mM PIPES, 150 mM KCl, 0.1 mg/ml BSA; 1536-well plates; only the binder purified.

No constants are given. Whether binding was seen depends on the method and setting. In cells and extracts the contact can be indirect. Some binding calls cover weakened binding; strength is not graded here.

Consider GFCPDHKAAMVLFLDRVYGIEVQDFLLHLLEVGFLP (HiLyte Fluor 647 on the N-terminus) [HL647-DPc10 (DPc10 peptide N-terminally labelled with HiLyte Fluor 647)], for which the binding entry is given as “binds”.
